Data as given in PubChem BioAssay AID652243 (Drosophila RNAi Screening Center, 2013)
The screen tested about 24,000 reagents; this is a random part of those that have a named target and a result. Over the whole deposit, 246 (1%) were called active. 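Plates not normalised; calls are printed but the firefly/Renilla ratio behind them is not deposited; fold cut for lowering reported inconsistently.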 Raw values are not corrected between plates. A plus sign joins genes that one reagent is predicted to hit. Not stated in the record: the amount of reagent.

Aim: 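Fly genes required for human androgen receptor driven transcription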 (primary screen)
System: Drosophila S2R+ cells
Reagent: long dsRNA against Drosophila genes
Time to read-out: 72 h (48 h, then 24 h hormone)
Treatment: synthetic androgen R1881 at 10 nM for 24 h
Read-out: 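Firefly light from an androgen-responsive reporter and Renilla control light per well, raw and unnormalised, for each of two replicates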
Scale: firefly reporter light: higher = more light from androgen-responsive reporter; Renilla control light: higher = more constitutive control signal (cell number, transfection)
Active means: 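Across duplicate plates, a knock-down whose log firefly/Renilla ratio shifted a set fold down or up from the GFP/LacZ control mean was a hit; the downward cut appears as both 1.5 and 3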
Calls: active = hit: reporter lowered or raised; inactive = no hit

| gene | dsRNA | firefly reporter light, replicate 1 | firefly reporter light, replicate 2 | Renilla control light, replicate 1 | Renilla control light, replicate 2 | call |
| --- | --- | --- | --- | --- | --- | --- |
| Cdc50 | DRSC20224 | 4.43e5 | 5.40e5 | 3.14e6 | 3.17e6 | inactive |
| Cdc6 | DRSC10563 | 7.17e5 | 9.13e5 | 8.10e5 | 1.39e6 | inactive |
| CG16762 | DRSC08493 | 52051 | 51327 | 8.98e5 | 7.75e5 | inactive |
| Cpr31A | DRSC02779 | 1.16e5 | 1.08e5 | 8.33e5 | 7.01e5 | inactive |
| Cpr31A | DRSC28742 | 3.70e5 | 3.77e5 | 9.66e5 | 1.12e6 | inactive |
| TpnC25D | DRSC02965 | 60571 | 59112 | 9.15e5 | 8.14e5 | inactive |
| TpnC25D | DRSC24524 | 1.50e5 | 1.75e5 | 5.54e5 | 3.71e5 | inactive |
| CG13627 | DRSC14629 | 1.74e5 | 2.20e5 | 2.43e6 | 2.42e6 | inactive |
| CG33673 | DRSC38938 | 8.36e5 | 8.40e5 | 2.23e6 | 1.87e6 | inactive |
| AstA | DRSC14634 | 1.56e5 | 2.41e5 | 2.84e6 | 3.30e6 | inactive |
| T48 | DRSC16878 | 1.39e5 | 1.45e5 | 1.83e6 | 2.02e6 | inactive |
| Efhc1.1 | DRSC20135 | 6.58e5 | 5.71e5 | 3.58e6 | 3.08e6 | inactive |
| CG1785 | DRSC18139 | 1.21e5 | 1.16e5 | 7.75e5 | 8.99e5 | inactive |
| CG1785 | DRSC30032 | 5.78e5 | 3.64e5 | 9.67e5 | 1.06e6 | inactive |
| asRNA:CR43430 + hts | DRSC07629 | 72952 | 90034 | 7.67e5 | 1.17e6 | inactive |
| Dic1 | DRSC14125 | 63590 | 63364 | 4.27e5 | 4.45e5 | inactive |
| Cyp317a1 | DRSC07366 | 1.30e5 | 1.12e5 | 2.22e6 | 2.22e6 | inactive |
| CG31780 + CG18477 | DRSC26122 | 2.55e5 | 2.53e5 | 8.42e5 | 7.40e5 | inactive |
| CG8460 | DRSC03090 | 7.12e5 | 8.34e5 | 1.21e6 | 1.58e6 | inactive |
| CG18302 | DRSC02663 | 1.77e5 | 1.64e5 | 1.44e6 | 1.62e6 | inactive |
| CG18302 | DRSC29318 | 7.54e5 | 7.67e5 | 1.43e6 | 1.43e6 | inactive |
| shop | DRSC20030 | 1.42e5 | 1.47e5 | 9.88e5 | 1.05e6 | inactive |
| shop | DRSC26764 | 2.30e5 | 1.79e5 | 4.22e5 | 4.86e5 | inactive |
| Ssl2 | DRSC14395 | 2.77e5 | 2.42e5 | 2.02e6 | 3.76e6 | inactive |
| Ssl2 | DRSC22796 | 7.02e5 | 1.07e6 | 6.88e5 | 1.07e6 | inactive |
| rtp | DRSC12132 | 39332 | 53089 | 4.54e5 | 4.74e5 | inactive |
| Cals | DRSC17196 | 1.16e5 | 1.13e5 | 1.16e6 | 6.87e5 | inactive |
| Cals | DRSC21661 | 7.73e5 | 1.01e6 | 1.67e6 | 1.67e6 | inactive |
| Mco1 | DRSC02720 | 1.44e5 | 2.31e5 | 1.83e6 | 2.34e6 | inactive |
| CG31928 | DRSC00293 | 8.39e5 | 9.68e5 | 2.29e6 | 2.34e6 | inactive |
| Acp26Aa | DRSC01855 | 1.05e5 | 1.51e5 | 8.78e5 | 8.01e5 | inactive |

Continued (5 carried over from the part before).
| gene | dsRNA | firefly reporter light, replicate 1 | firefly reporter light, replicate 2 | Renilla control light, replicate 1 | Renilla control light, replicate 2 | call |
| --- | --- | --- | --- | --- | --- | --- |
| Cals | DRSC17196 | 1.16e5 | 1.13e5 | 1.16e6 | 6.87e5 | inactive |
| Cals | DRSC21661 | 7.73e5 | 1.01e6 | 1.67e6 | 1.67e6 | inactive |
| Mco1 | DRSC02720 | 1.44e5 | 2.31e5 | 1.83e6 | 2.34e6 | inactive |
| CG31928 | DRSC00293 | 8.39e5 | 9.68e5 | 2.29e6 | 2.34e6 | inactive |
| Acp26Aa | DRSC01855 | 1.05e5 | 1.51e5 | 8.78e5 | 8.01e5 | inactive |
| PpN58A | DRSC04642 | 1.63e6 | 1.52e6 | 2.21e6 | 2.04e6 | inactive |
| PpN58A | DRSC28243 | 6.03e5 | 9.29e5 | 1.09e6 | 1.72e6 | inactive |
| CG11906 | DRSC06096 | 73892 | 91749 | 7.74e5 | 8.60e5 | inactive |
| Elp5 | DRSC08547 | 73821 | 68132 | 8.22e5 | 8.26e5 | inactive |
| Drsl5 | DRSC08159 | 1.68e5 | 1.99e5 | 2.02e6 | 2.48e6 | inactive |
| Crag | DRSC18454 | 92972 | 89918 | 6.54e5 | 7.06e5 | inactive |
| CG6766 | DRSC02991 | 5.45e5 | 3.92e5 | 2.91e6 | 2.55e6 | inactive |
| CG10841 | DRSC14271 | 22300 | 66231 | 3.02e5 | 3.18e5 | inactive |
| CG10841 | DRSC28142 | 6.42e5 | 6.87e5 | 1.03e6 | 1.22e6 | inactive |
| Pdk1 | DRSC08682 | 37078 | 67556 | 4.55e5 | 4.64e5 | inactive |
| Pdk1 | DRSC27069 | 2.33e5 | 1.49e5 | 5.78e5 | 4.69e5 | inactive |
| Pdk1 | DRSC37029 | – | – | – | – | inactive |
| CG4619 | DRSC02764 | 8.33e5 | 7.63e5 | 2.23e6 | 2.54e6 | inactive |
| CG11560 | DRSC09843 | 1.15e6 | 9.60e5 | 2.36e6 | 2.17e6 | inactive |
| CG11560 | DRSC27017 | 4.36e5 | 3.10e5 | 9.72e5 | 4.17e5 | inactive |
| JYalpha | DRSC17224 | 2.39e5 | 2.50e5 | 3.22e6 | 2.50e6 | inactive |
| Ipk1 | DRSC04235 | 5.81e5 | 6.59e5 | 2.39e6 | 2.78e6 | inactive |
| Ipk1 | DRSC04236 | 1.55e5 | 1.70e5 | 1.03e6 | 1.13e6 | inactive |
| Ipk1 | DRSC04237 | 2.23e5 | 2.36e5 | 2.06e6 | 1.92e6 | inactive |
| CG40191 | DRSC21041 | 7.06e5 | 7.18e5 | 3.35e6 | 2.88e6 | inactive |
| Agps | DRSC05984 | 76734 | 68324 | 2.02e6 | 2.02e6 | inactive |
| Agps | DRSC26742 | 7.09e5 | 4.26e5 | 9.64e5 | 2.66e5 | inactive |
| fus | DRSC05569 | 1.38e5 | 1.92e5 | 4.58e5 | 6.33e5 | inactive |
| fus | DRSC07107 | 1.12e6 | 1.46e6 | 2.31e6 | 2.92e6 | inactive |
| slf | DRSC00583 | 1.14e5 | 1.21e5 | 5.43e5 | 7.23e5 | inactive |
| slf | DRSC27361 | 3.58e5 | 3.99e5 | 3.28e5 | 3.32e5 | inactive |
| CG8245 | DRSC04901 | 4.49e5 | 7.65e5 | 1.17e6 | 2.13e6 | inactive |
